Test results as given in patent publication US6248716A, “Peptide, a method for its preparation and a pharmaceutical composition containing the peptide” (priority 1999, dated 2001).
Part of at least one peptide drawing is inferred or uncertain, most often the ends. Non-standard residues stand in square brackets, D forms with d. Residues, ends and D or L forms follow the SMILES beside them.

What was measured:
[1] = Stress-corrective effect under 18-hour immobilization; type: in vivo, white Wistar rats; conditions: 10.0 and 100.0 μg/kg subcutaneous
[2] = Weight gain and skin area in arctic foxes; type: in vivo; conditions: for Weight increase, kg, female / Weight increase, kg, male: one month; for Weight gain, %, female / Weight gain, %, male: control = 100; for weight gain over control: Group 4, 20 μg per kg body weight
[3] = Weight gain in young mice; type: in vivo, NMRI mice; conditions: for Weight gain, % (relative to control) / Weight increase, %: 30 days
[4] = Weight gain in chickens (cockerels); type: in vivo, P-46 breed
Protocol: The effect of the peptide on weight gain in chickens was examined. Tests were conducted on chickens of egg oriented productivity, "P-46" breed. 24 hour old cockerels were divided in 5 groups, 13 cockerels in each--one control group and 4 test groups.
The birds were given a full diet till they reached the age of 10 weeks. 100% of birds in both the control and test groups survived.
After 10 weeks, the cockerels were killed and examined.
Quality of the cockerel meat was tested on an organoleptic basis.

[5] = Weight gain in young rats; type: in vivo, white mongrel rats; conditions: group 4, 1.0 μg per kg intraperitoneal, 35 days
caudal fins [6] = assay: Caudal fin regeneration in trout; type: in vivo; conditions: young trout, immersion 1.0 mg peptide per liter, 2 months
caudal fins [7] = assay: Caudal fin regeneration in carps; type: in vivo, carp
[8] = Weight gain in young bulls; type: in vivo; conditions: for Weight increase, % / Weight gain, %: young bulls; for Weight increase, %: 60 days; for Weight gain, %: control = 100
Protocol: There were 7 groups of animals having approximately the same weight, with 12 young bulls in each group. The age of the animals was 2 months. There were 6 test groups and one control. The test animals were administered Sedatin with water before they were fed or as intramuscular injections in the amounts shown in Table 12. All animals received the same diet and were kept in the same conditions. Two animals in the control group fell ill during the experiment, and were replaced by analogs.
Two groups, one control and one test, were chosen for the second stage of the experiment. The test group was administered the peptide mixed with feed, in the amount of 10 μg per 1 kg of body weight. The control group was not administered any of the peptide. The data was biometrically processed.

Effect on growth of carp = type: in vivo; conditions: 2 hours in 0.25 mg/l of water, weighed twenty days later
[9] = Immune characteristics in carp; type: in vivo
Weight gain in pigs = type: in vivo
Protocol: The purpose of the first stage of testing was to determine the optimal dose of the peptide necessary to achieve the desired weight gain and the most beneficial manner of administering the peptide. The first stage of testing was conducted over a period of 100 days.
The pigs were divided into seven groups of ten animals each. The animals were all aged 4-5 months, and weighed about the same. There was one control group and six test groups. All the groups were given an ordinary diet.
Test groups 2, 3, and 4 were administered the peptide (1.0, 5.0, 10.0 μg kg/body weight) with feed, for 20 days each month with a 10 day break. Test groups 5, 6, and 7 were administered the peptide by injections of 0.01% water solutions for five days each month with a 25 day break (0.1, 0.5 and 1.0 μg per body weight).
Physiological examinations and biochemical tests were carried out during the experiment. The pigs were weighed on the 30th, 65th and 100th days of the experiment. […] Administration of 1 μg per 1 kg of body weight by intramuscular injections achieved a weight gain 18% higher than the control group (group 6).
The second stage of the experiment lasted 95 days, after which the animals were killed. The second stage of the experiment was carried out only with groups three and six, in order to determine which method of administration of the peptide produced the best results. To eliminate undesirable effects, the animals were not weighed before killing.

[10] = Narcotic sleep induced by sodium diethyl barbiturate (Medinal); type: in vivo, gray female mice; conditions: 1.0, 10.0, 100.0 μg per kg s.c., 1 hour prior to narcotic
[11] = Stress-corrective effect under mental-and-exercise stress (swimming at 20° C.); type: in vivo, C57 Black mice
[12] = arctic foxes, group 2, 10 μg/kg each day with feed
[13] = arctic foxes, group 2, 10 μg/kg each day
[14] = arctic foxes, group 3, 10 μg/kg ten days on, ten days off
[15] = arctic foxes, group 4, 20 μg/kg ten days on, ten days off
[16] = 0.1 μg/kg intraperitoneal administration
[17] = 0.5 μg/kg intraperitoneal administration
[18] = 1.0 μg/kg intraperitoneal administration
[19] = 100.0 μg/kg oral administration
[20] = group four, dissolved in water, 10 μg per 1 kg of body weight, 60 day period
[21] = intramuscular injection, 1 μg per 1 kg of body weight
[22] = 0.1 μg/kg intramuscular administration
[23] = 0.5 μg/kg intramuscular administration
[24] = 1.0 μg/kg intramuscular administration
[25] = group three (oral with feed), entire 195 days
[26] = 1, 0 μg/kg, 24 hours after the first swimming
[27] = 1, 0 μg/kg, three hours after the first swimming
[28] = 10, 0 μg/kg, 24 hours after the first swimming
[29] = 10, 0 μg/kg, three hours after the first swimming
[30] = 100, 0 μg/kg, 24 hours after the first swimming
[31] = 100, 0 μg/kg, three hours after the first swimming
[32] = 1000, 0 μg/kg, 24 hours after the first swimming
[33] = 1000, 0 μg/kg, three hours after the first swimming

## C[C@@H](NC(=O)[C@H](Cc1ccc(O)cc1)NC(=O)[C@@H](N)CCCNC(=N)N)C(=O)N[C@@H](Cc1ccccc1)C(=O)NCC(=O)O [H-Arg-Tyr-D-Ala-Phe-Gly-OH] (H-RY[dA]FG-OH)
[1]
  stomach ulceration: guards against the stomach ulceration
[2]; arctic foxes, first test group
  area of skin (pelts), larger than control: 12.3%
[2]; [12]
  Weight increase, kg, female: 1.780 kg
  Weight increase, kg, male: 0.830 kg
[2]; [13]
  Weight gain, %, female: 105%
  Weight gain, %, male: 116%
[2]; [14]
  Weight increase, kg, female: 1.740 kg
  Weight increase, kg, male: 1.890 kg
  Weight gain, %, female: 102%
  Weight gain, %, male: 120%
[2]; [15]
  Weight increase, kg, female: 1.810 kg
  Weight increase, kg, male: 1.920 kg
  Weight gain, %, female: 106%
  Weight gain, %, male: 121%
[2]; female arctic foxes
  weight gain over control: 6%
[2]; male arctic foxes
  weight gain over control: 21%
[3]; [16]
  Weight gain per 1 g of consumed food, % (relative to control): 110.4%
  Weight gain, % (relative to control): 18%
  Weight increase, %: 80%
[3]; [17]
  Weight gain per 1 g of consumed food, % (relative to control): 115.3%
  Weight gain, % (relative to control): 3%
  Weight increase, %: 70%
[3]; [18]
  Weight gain per 1 g of consumed food, % (relative to control): 97%
  Weight gain, % (relative to control): -0.4%
  Weight increase, %: 65%
[3]; 1.0 μg/kg oral administration
  Weight gain per 1 g of consumed food, % (relative to control): 128.1%
  Weight gain, % (relative to control): 108%
  Weight increase, %: 142%
[3]; 10 μg per kg body weight through drinking water
  weight gain per consumption of 1 g of food, more than in the control group: 36.5%
[3]; 10.0 μg/kg oral administration
  Weight gain per 1 g of consumed food, % (relative to control): 136.5%
  Weight gain, % (relative to control): 54%
  Weight increase, %: 105%
[3]; [19]
  Weight gain per 1 g of consumed food, % (relative to control): 127%
  Weight gain, % (relative to control): 32%
  Weight increase, %: 90%
[3]; oral, dose of 0.1 μg with drinking water
  weight gain: largest weight gain
[4]; after 10 weeks
  weight of eviscerated and semieviscerated cockerels vs control: higher
[4]; cockerels, test groups 3-5, mixed with feed, 10 weeks
  average day's weight gain, higher than control group: 13-23%
[4]; test cockerels
  feed consumption per 1 kg of weight gain vs control: lower
[5]
  weight gain: largest weight gain
Caudal fins [6]
  regeneration zone length, times longer than control: ~1.5 times
Caudal fins [7]
  caudal fin regeneration, times longer than in the controls: 1.5 times
[8]; [20]
  average daily weight gain: 582 g
  average daily weight gain, higher than control group: 172 g
[8]; [21]
  average daily weight gain: 627 g
  average daily weight gain, higher than control group: 217 g
[8]; [22]
  Weight increase, %: 30.3%
  Weight gain, %: 123%
[8]; [23]
  Weight increase, %: 29.7%
  Weight gain, %: 121%
[8]; [24]
  Weight increase, %: 37.6%
  Weight gain, %: 153%
[8]; 1.0 μg/kg oral administration
  Weight increase, %: 27.2%
  Weight gain, %: 110%
[8]; 5.0 μg/kg oral administration
  Weight increase, %: 26.1%
  Weight gain, %: 106%
[8]; 10.0 μg/kg oral administration
  Weight increase, %: 34.6%
  Weight gain, %: 142%
Effect on growth of carp
  weight increase, larger than control group, on average: 23%
[9]
  lysozyme activity, reduction: ~20%
[9]; after a week of treatment
  agglutination titer to rabbit erythrocytes in blood serum, times larger than at the start: 1.95 times
Weight gain in pigs; [25]
  weight gain: 621.5 g
  weight gain, higher than in group six (intramuscular): 46.1 g
  weight gain, higher than in the control group: 108.5 g
Weight gain in pigs; intramuscular injections, 1 μg per 1 kg of body weight, first stage 100 days
  weight gain, higher than the control group: 18%
Weight gain in pigs; with feed (oral), 10 μg per 1 kg of body weight, first stage 100 days
  weight gain, higher than in the control group: 30%
[10]
  lengthening of the sleep time of narcotic-induced sleep: 10-20%
[11]; 1, 0 μg/kg s.c., first swimming
  Protection rate (PR): 1,258
[11]; [26]
  PR by the 1st hour: 1,466
  PR by the 3rd hour: 1,374
  Protection rate (PR): 1,746
[11]; [27]
  PR by the 1st hour: 1,066
  Protection rate (PR): 1,354
[11]; 10, 0 μg/kg s.c., first swimming
  Protection rate (PR): 1,107
[11]; [28]
  PR by the 1st hour: 1,966
  PR by the 3rd hour: 1,623
  Protection rate (PR): 2,062
[11]; [29]
  PR by the 1st hour: 1,128
  Protection rate (PR): 1,261
[11]; 100, 0 μg/kg s.c., first swimming
  Protection rate (PR): 1,500
[11]; [30]
  PR by the 1st hour: 0,984
  PR by the 3rd hour: 1,000
  Protection rate (PR): 1,397
[11]; [31]
  PR by the 1st hour: 0,984
  Protection rate (PR): 1,489
[11]; 1000, 0 μg/kg s.c., first swimming
  Protection rate (PR): 1,334
[11]; [32]
  PR by the 1st hour: 1,084
  PR by the 3rd hour: 1,058
  Protection rate (PR): 1,333
[11]; [33]
  PR by the 1st hour: 1,024
  Protection rate (PR): 1,343
